In patent US12636371B2, “Chemically coupled transporter for low-hydrophobicity bioactive drugs into the central nervous system” (Skybio LLC, priority 2021, dated 2026):
At least one compound was matched to its structure with a doubt left.

Tested on: SH-SY5Y cells
Assay: CellROX assay of intracellular reactive oxygen species induced by ASf
Assay type: cell-based
Settings: 7 μM ASf + 10 μM compound, 24 h
Procedure: In order to characterize the antioxidant properties of D9, its protective action on the AS-induced production of reactive oxygen species (ROS) in a cellular model was assessed. For this, SH-SY5Y cells were treated with fibrils of AS (ASf) (AS incubated 120 h at 37° C. and 600 rpm), and the reactive oxygen species produced were examined using the CellROX® Orange Reagent (Invitrogen), which undergoes oxidation by ROS to form a stable fluorescent compound.
In addition, cells were also treated with doxycycline 10 μM+7 μM ASf (ASf+Doxy) as a positive control, and 10 μM doxycycline alone (Doxy). All conditions were incubated 24 h at 37° C. and 5% CO2. […] Fluorescent images of randomly chosen fields were acquired with identical acquisition parameters using a Zeiss Axio Vert.A1 inverted fluorescence microscope.

With `C[C@H]1c2cccc(O)c2C(=O)C2=C(O)[C@]3(O)C(=O)C(C(N)=O)=C(O)[C@@H](N(C)C)[C@@H]3[C@@H](O)[C@@H]21` [Doxycycline, reference compound] the “Intracellular ROS induced by ASf in presence of compound” value was “able to protect the cells from oxidative stress”.
